{
  "sequences": {"note": "Protein sequences, listed by entry. Tags and fused reporters are not part of them. Lines headed by an entry give the natural chain unless they say otherwise; changes in a name come on top.", "UniProt P32121, whole entry": "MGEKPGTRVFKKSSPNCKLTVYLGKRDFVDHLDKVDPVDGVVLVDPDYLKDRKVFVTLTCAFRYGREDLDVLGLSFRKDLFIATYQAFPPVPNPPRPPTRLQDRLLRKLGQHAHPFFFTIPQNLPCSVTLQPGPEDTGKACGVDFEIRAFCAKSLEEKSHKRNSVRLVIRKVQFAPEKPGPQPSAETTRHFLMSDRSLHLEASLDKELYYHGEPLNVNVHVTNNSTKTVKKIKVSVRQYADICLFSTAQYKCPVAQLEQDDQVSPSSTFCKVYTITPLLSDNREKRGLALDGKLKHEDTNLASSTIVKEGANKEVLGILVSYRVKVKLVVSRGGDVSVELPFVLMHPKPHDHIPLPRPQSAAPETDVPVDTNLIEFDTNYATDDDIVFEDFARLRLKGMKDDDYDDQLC"},
  "source": "paper PMC5583172",
  "key": {"Rluc8-MOR [1]": {"target": "Rluc8-MOR (UniProt P35372)", "assay": "FRET or BRET; BRET1 in HEK293 cells stably expressing eYFP-beta-arrestin-2 and transfected with Rluc8-MOR; cells activated 5 to 10 min with DAMGO, fentanyl or morphine at 37 °C; ratio of buffer-treated cells subtracted, normalised to maximal DAMGO effect"}, "Rluc8-MOR [2]": {"target": "Rluc8-MOR (UniProt P35372)", "assay": "condition: only cells activated with M3G (not with DAMGO, fentanyl or morphine); FRET or BRET; BRET1 in HEK293 cells stably expressing eYFP-beta-arrestin-2 and transfected with Rluc8-MOR; cells activated 5 to 10 min with M3G at 37 °C; ratio of buffer-treated cells subtracted, normalised to maximal DAMGO effect"}},
  "note": "These are yes or no findings as the source states them, for the method shown. Binding seen in cells or lysates may run through a third protein. Some entries that bind do so weakly or less than the wild type.",
  "data": [
    {"substance": "eYFP-tagged beta-arrestin-2 (from UniProt P32121 1-409)", "values": [
      {"measurement": "binding", "setting": "Rluc8-MOR [1]", "result": "binds"},
      {"measurement": "binding", "setting": "Rluc8-MOR [2]", "result": "no binding"}
    ]}
  ]
}
